Laboratory results as given in publication PMC9015526, “Mass Spectrometric Assays Reveal Discrepancies in Inhibition Profiles for the SARS‐CoV‐2 Papain‐Like Protease” (Chemmedchem, 2022).

Target: SARS‐CoV‐2 PL^pro (Severe acute respiratory syndrome coronavirus 2, UniProt P0DTD1)
Type: biochemical

COc1cc2ncnc(Nc3ccc(F)c(Cl)c3)c2cc1OCCCN1CCOCC1 [gefitinib]
PL^pro inhibition in SPE‐MS assay (in words): inactive
